## Library screen at single concentrations

Each number is a percent effect as filed. The controls that fix the scale are not given in the record; negative values are as filed. This is an unselected part of the compounds tested. Two or more numbers in one place are separate tests of the same structure; such repeats can differ widely.

Mtb cholesterol medium: 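Phenotypic screen: M. tuberculosis growth, cholesterol and DPPC medium, 4 days; the read-out is not stated. Compounds at 50 µM. Direction is inferred from retests: higher values go with more growth inhibition. Of about 69,000 compounds tested this way, about 370 (0.54%) reached 50% or more in at least one test.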
Mtb glucose medium: 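Growth of Mycobacterium tuberculosis over 3 days (7H9 medium with glucose and tyloxapol); the read-out is not stated. Compounds at 50 µM. The record gives no direction; compounds that gave an IC50 in retests scored well above the rest, so higher reads as more growth inhibition. About 69,000 compounds were tested under these conditions; 1.1% (about 760) showed 50% or more at least once.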

For N#CC1(C(=O)N2CCOC(c3ccc(F)cc3)C2)CCCCC1 (centres unmarked) the result was Mtb cholesterol medium: 12.33%; Mtb glucose medium: 27.93% & 3.3%. CN1C(=O)CC(c2ccccc2)C12CCN(c1ncc(F)cn1)CC2 (centres unmarked) read Mtb cholesterol medium: -13%; Mtb glucose medium: -10.44%. Result for CS(=O)(=O)N1CCCC1c1ccnc2nccn12 (centres unmarked) was Mtb cholesterol medium: 5.69% & -2.389%; Mtb glucose medium: -8.968%. Cc1csc(NC(=O)C(C)Oc2ccc3c(c2)OCO3)n1 (centres unmarked) read Mtb cholesterol medium: 48.23%; Mtb glucose medium: 57.37%. CN(Cc1cccc(CCN)c1)Cc1cccc2ncccc12 read Mtb cholesterol medium: 8.869%; Mtb glucose medium: 5.382% & -0.918%. For NC(=O)CSc1nnc2[nH]c(=O)c3c(n12)CCCC3 the result was Mtb cholesterol medium: -14.69%; Mtb glucose medium: -3.748% & 5.966%. Result for COC(=O)CC1CCN(C(=O)Nc2ccc(-c3ccn[nH]3)cc2)C1 (centres unmarked) was Mtb cholesterol medium: -18.28% & -12.29%; Mtb glucose medium: 11.6%. For O=C(O)C(F)(F)F.O=C(c1ccoc1)N1CCOC2(COCCN(c3ncccn3)C2)C1 (centres unmarked) the result was Mtb cholesterol medium: -17.77% & -5.896%; Mtb glucose medium: -8.303%.

Result for CN(C)C1CC2(CCN(C(=O)C3(C#N)CC3)CC2)c2ccccc21.O=C(O)C(F)(F)F (centres unmarked) was Mtb cholesterol medium: -26.25%; Mtb glucose medium: -27.84%. CCc1ccc(S(=O)(=O)NCC2CCN(c3cnccn3)CC2)s1 gave Mtb cholesterol medium: 0.5672%; Mtb glucose medium: 19.72%. CCOc1c(F)cccc1C(=O)N(C)CCc1ccccn1 gave Mtb cholesterol medium: -13.4%; Mtb glucose medium: -46.25% & -11.09%. [H][C@]12CC[C@@]3(N=C(C)NC3=O)[C@@]1([H])CN(C(=O)NCc1ccccc1C)C2 read Mtb cholesterol medium: 11.57%; Mtb glucose medium: 19.71%. For Cc1nc2c(c(C)c1CC(=O)Nc1ccnn1C(C)C)c(=O)[nH]n2C the result was Mtb cholesterol medium: -1.207%; Mtb glucose medium: 13.78%. COCC(NC(=O)NCc1sccc1C)c1ccco1 (centres unmarked) read Mtb cholesterol medium: -6.915%; Mtb glucose medium: -3.268%. Result for CCn1ncc(CN(C)C(=O)c2cc(C(F)(F)F)n(C)n2)c1C was Mtb cholesterol medium: 1.549%; Mtb glucose medium: 5.66%. With CCn1ncc2c1C(COCC1CC1)CN(C(=O)c1ccncn1)C2.O=C(O)C(F)(F)F (centres unmarked) the screen gave Mtb cholesterol medium: -31.44%; Mtb glucose medium: -23.76%.

[H][C@]12CCN(C(=O)c3ccc4[nH]ccc4c3)C[C@@]1([H])OCCN(CCOC)C2 gave Mtb cholesterol medium: -15.99%; Mtb glucose medium: -29.25%. Result for Cc1cn2c(CN(C)C(=O)c3ncoc3C)c(C)nc2s1 was Mtb cholesterol medium: -0.5433%; Mtb glucose medium: 3.005%. With CN(Cc1nnc2ccccn12)C(=O)NC1CCCCC1 the screen gave Mtb cholesterol medium: 6.752%; Mtb glucose medium: 11.63%. With CCOc1cccc2c1OCC(=O)N(c1ccc(N(C)C)cc1)C2 the screen gave Mtb cholesterol medium: -7.911%; Mtb glucose medium: 17%. CCc1ccccc1OC1CN(C(=O)c2ccsc2)C1 gave Mtb cholesterol medium: 52.69% & 46.91%; Mtb glucose medium: 53.6%. COc1ccc2nc(C[C@@H]3C[C@@H](C(C)C)[C@H](CN)C=C3C)[nH]c2n1 read Mtb cholesterol medium: -4.246%; Mtb glucose medium: 15.04% & -1.397%. For O=C(CN1CCCCC1C1OCCO1)Nc1ccc(F)c(F)c1 (centres unmarked) the result was Mtb cholesterol medium: 4.755% & 0.5697%; Mtb glucose medium: 15.82%. [H][C@@]12CN(c3nc(C)ccc3C(N)=O)C[C@]1([H])N(C1CCCC1)C(=O)O2 gave Mtb cholesterol medium: -18.87%; Mtb glucose medium: -23.53%.

Result for Cn1ncc(C2CC(=O)NCc3nc4ccccn4c32)c1C1CC1 (centres unmarked) was Mtb cholesterol medium: -13.21%; Mtb glucose medium: -14.19%. CN(C)C[C@H]1CC[C@@H](Cc2ccc3c(cnn3C)c2)O1 read Mtb cholesterol medium: -3.188%; Mtb glucose medium: 2.788% & 5.225%. Cc1cc(C)nc(N2CCC(c3nnc(CN(C)C)n3C3CC3)CC2)n1 read Mtb cholesterol medium: -15.09%; Mtb glucose medium: -17.54%. NCC1CCN(c2cnn(CCCn3cccn3)c(=O)c2)CC1 read Mtb cholesterol medium: -22.85%; Mtb glucose medium: -26.42%. With COc1ccc(NC(=O)COc2nn(C)c3nc(C)cc(C)c23)cn1 the screen gave Mtb cholesterol medium: -1.062%; Mtb glucose medium: -47.17% & -21.02%. COCCC1COC2(CCN(C(=O)CC3CCCC3)CC2)C1 (centres unmarked) read Mtb cholesterol medium: -27.14%; Mtb glucose medium: 5.183%. Result for O=C1CNCC(C(=O)N2CC(Oc3ccccc3Cl)C2)N1 (centres unmarked) was Mtb cholesterol medium: -5.069%; Mtb glucose medium: 3.094%. For CCNc1ccnc(NC2CCN(CC(N)=O)CC2)n1 the result was Mtb cholesterol medium: -6.14%; Mtb glucose medium: -4.382%.

For Cc1cc(N2CCc3c(nc(C(C)C)n3C)C2)nc(N)n1 the result was Mtb cholesterol medium: 13.37% & -5.127%; Mtb glucose medium: 2.626%. Cc1nc(N2CCCC2)nc2c1CN(C(=O)N(C)C)CC2 read Mtb cholesterol medium: -3.019% & -5.402%; Mtb glucose medium: -16.74%. Result for Cc1cc(NC(=O)C2CCCN(C(=O)NCC(C)C)C2)ccn1 (centres unmarked) was Mtb cholesterol medium: -2.43%; Mtb glucose medium: 0.3169%. Cc1cc(CNC2CCCN(Cc3noc(C4CC4)n3)C2)on1 (centres unmarked) gave Mtb cholesterol medium: -3.988%; Mtb glucose medium: -55.28% & -5.679%. Cc1cc2ccncc2n1CC1(O)CCN(C(=O)c2cccnc2)CC1 read Mtb cholesterol medium: -4.599%; Mtb glucose medium: 24.22%. COc1ccccc1N1CCN(C(=O)Cn2nccc2C)CC1(C)C read Mtb cholesterol medium: -7.318% & 2.325%; Mtb glucose medium: -3.967%. Result for O=C(Cc1cccs1)NCc1ccnc(C2CCCOC2)n1 (centres unmarked) was Mtb cholesterol medium: 5.932% & -19.31%; Mtb glucose medium: 21.99%. Result for O=C(NCc1cc[nH]n1)N1CCCC(N2CCCC2)C1 (centres unmarked) was Mtb cholesterol medium: 2.27%; Mtb glucose medium: -3.546%.

For CCSc1nc2ccccc2c(=O)n1OCC(=O)OC the result was Mtb cholesterol medium: 29.21%; Mtb glucose medium: 67.21%. O=C(NCCCO)Nc1cccc(C[S+]([O-])Cc2ccccc2)c1 (centres unmarked) gave Mtb cholesterol medium: -3.316%; Mtb glucose medium: -27.02%. With COCCNC(=O)c1sc2ccccc2c1C1CCC(CN)CC1.Cl (centres unmarked) the screen gave Mtb cholesterol medium: 0.7707%; Mtb glucose medium: -0.436%. With CCn1nc(C(C)C)cc1C(=O)NCc1nc2ccc(OC)cc2[nH]1 the screen gave Mtb cholesterol medium: 0.2636%; Mtb glucose medium: -1.274%. For Cc1cc(C(=O)NCc2cccs2)nc(N2CCCC2)n1 the result was Mtb cholesterol medium: 15.54%; Mtb glucose medium: 7.978%. Cc1cc(C)c2cc(CNCc3ccco3)c3nn(C)c(=O)n3c2c1 read Mtb cholesterol medium: -12.58%; Mtb glucose medium: 45.67%. With Cc1cnn(C2CCN(Cc3ccccc3)C2)c1N (centres unmarked) the screen gave Mtb cholesterol medium: -4.406%; Mtb glucose medium: 23.36%. For Cn1cc(C[C@H]2[C@@H](O)CCN2C(=O)C2CCC2)cn1 the result was Mtb cholesterol medium: -2.017% & -19.93%; Mtb glucose medium: -4.035% & -9.525%.

For reference, 4 entries once more:

compound,Mtb cholesterol medium,Mtb glucose medium
CCn1nc(C(C)C)cc1C(=O)NCc1nc2ccc(OC)cc2[nH]1,0.2636,-1.274
CCNc1ccnc(NC2CCN(CC(N)=O)CC2)n1,-6.14,-4.382
COc1ccccc1N1CCN(C(=O)Cn2nccc2C)CC1(C)C,-7.318 & 2.325,-3.967
Cc1nc(N2CCCC2)nc2c1CN(C(=O)N(C)C)CC2,-3.019 & -5.402,-16.74

From ChEMBL document CHEMBL3988442, “University of Dundee, Small-Polar-MMV Screening Library” (2021).